# The other results are listed elsewhere or left out.
# B1: CD4 (Rattus norvegicus), P05540 (protein)
# chain: MCRGFSFRHLLPLLLLQLSKLLVVTQGSTSITAYKSEGESAEFSFPLNLGEESLQGELRWKAEKAPSSQSWITFSLKNQKVSVQKSTSNPKFQLSETLPLTLQIPQVSLQFAGSGNLTLTLDRGILYQEVNLVVMKVTQPDSNTLTCEVMGPTSPKMRLILKQENQEARVSRQEKVIQVQAPEAGVWQCLLSEGEEVKMDSKIQVLSKGLNSGGGSGGGTGGGDLAPQMLRELQETNAALQDVRELLRQQVKEITFLKNTVMECDACGLDRNLPPLAPLGPHPETLVKVKDAEDQLGARVGYIELDLNSGKILESFRPEERFPMMSTFKVLLCGAVLSRIDAGQEQLGRRIHYSQNDLVEYSPVTEKHLTDGMTVRELCSAAITMSDNTAANLLLTTIGGPKELTAFLHNMGDHVTRLDRWEPELNEAIPNDERDTTMPVAMATTLRKLLTGELLTLASRQQLIDWMEADKVAGPLLRSALPAGWFIADKSGAGERGSRGIIAALGPDGKPSRIVVIYTTGSQATMDERNRQIAEIGASLIKHW
# Tests used:
# Experiment in all cases: glycan array binding signal (z-score within array); higher = stronger binding
# Conditions in all cases: glycan notation: IUPAC condensed, linker removed
# [1] = biological target: Gal(b1-4)GlcNAc(b1-3)Gal(b1-4)GlcNAc(b1-2)[Gal(b1-4)GlcNAc(b1-3)Gal(b1-4)GlcNAc(b1-6)]Man(a1-6)[Gal(b1-4)GlcNAc(b1-3)Gal(b1-4)GlcNAc(b1-2)Man(a1-3)]Man(b1-4)GlcNAc(b1-4)GlcNAc
# Method in brief: (§1)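 The binding signal is a Z-score computed within each array and averaged over linkers. Arrays of the same protein sequence at different concentrations or buffers were also averaged together. Data originate from 3228 arrays in the Consortium for Functional Glycomics database, kept only where the protein sequence was available.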
# [2] = biological target: Gal(b1-4)GlcNAc(b1-3)Gal(b1-4)GlcNAc(b1-2)[Gal(b1-4)GlcNAc(b1-3)Gal(b1-4)GlcNAc(b1-6)]Man(a1-6)[Gal(b1-4)GlcNAc(b1-3)Gal(b1-4)GlcNAc(b1-2)Man(a1-3)]Man(b1-4)GlcNAc(b1-4)[Fuc(a1-6)]GlcNAc
# Method in brief: as §1
# [3] = biological target: Gal(b1-4)GlcNAc(b1-3)Gal(b1-4)GlcNAc(b1-3)Gal(b1-4)GlcNAc
# Method in brief: as §1
# [4] = biological target: Gal(b1-4)GlcNAc(b1-3)Gal(b1-4)GlcNAc(b1-3)Gal(b1-4)GlcNAc(b1-2)Man(a1-3)[Gal(b1-4)GlcNAc(b1-3)Gal(b1-4)GlcNAc(b1-3)Gal(b1-4)GlcNAc(b1-2)Man(a1-6)]Man(b1-4)GlcNAc(b1-4)GlcNAc
# Method in brief: as §1
# [5] = biological target: Gal(b1-4)GlcNAc(b1-3)Gal(b1-4)GlcNAc(b1-3)Gal(b1-4)GlcNAc(b1-2)Man(a1-3)[Gal(b1-4)GlcNAc(b1-3)Gal(b1-4)GlcNAc(b1-3)Gal(b1-4)GlcNAc(b1-2)Man(a1-6)]Man(b1-4)GlcNAc(b1-4)[Fuc(a1-6)]GlcNAc
# Method in brief: as §1
# [6] = biological target: Gal(b1-4)GlcNAc(b1-3)Gal(b1-4)GlcNAc(b1-3)Gal(b1-4)GlcNAc(b1-2)[Gal(b1-4)GlcNAc(b1-3)Gal(b1-4)GlcNAc(b1-3)Gal(b1-4)GlcNAc(b1-6)]Man(a1-6)[Gal(b1-4)GlcNAc(b1-3)Gal(b1-4)GlcNAc(b1-3)Gal(b1-4)GlcNAc(b1-2)Man(a1-3)]Man(b1-4)GlcNAc(b1-4)[Fuc(a1-6)]GlcNAc
# Method in brief: as §1
# [7] = biological target: Gal(b1-4)GlcNAc(b1-3)Gal(b1-4)GlcNAc(b1-3)Gal(b1-4)GlcNAc(b1-3)Gal(b1-4)GlcNAc(b1-2)Man(a1-3)[Gal(b1-4)GlcNAc(b1-3)Gal(b1-4)GlcNAc(b1-3)Gal(b1-4)GlcNAc(b1-3)Gal(b1-4)GlcNAc(b1-2)Man(a1-6)]Man(b1-4)GlcNAc(b1-4)GlcNAc
# Method in brief: as §1
# [8] = biological target: Gal(b1-4)GlcNAc(b1-3)Gal(b1-4)GlcNAc(b1-3)Gal(b1-4)GlcNAc(b1-3)Gal(b1-4)GlcNAc(b1-2)Man(a1-3)[Gal(b1-4)GlcNAc(b1-3)Gal(b1-4)GlcNAc(b1-3)Gal(b1-4)GlcNAc(b1-3)Gal(b1-4)GlcNAc(b1-2)Man(a1-6)]Man(b1-4)GlcNAc(b1-4)[Fuc(a1-6)]GlcNAc
# Method in brief: as §1
# [9] = biological target: Gal(b1-4)GlcNAc(b1-3)Gal(b1-4)GlcNAc(b1-3)Gal(b1-4)GlcNAc(b1-3)Gal(b1-4)GlcNAc(b1-2)[Gal(b1-4)GlcNAc(b1-3)Gal(b1-4)GlcNAc(b1-3)Gal(b1-4)GlcNAc(b1-3)Gal(b1-4)GlcNAc(b1-6)]Man(a1-6)[Gal(b1-4)GlcNAc(b1-3)Gal(b1-4)GlcNAc(b1-3)Gal(b1-4)GlcNAc(b1-3)Gal(b1-4)GlcNAc(b1-2)Man(a1-3)]Man(b1-4)GlcNAc(b1-4)[Fuc(a1-6)]GlcNAc
# Method in brief: as §1
# [10] = biological target: Gal(b1-4)GlcNAc(b1-3)Gal(b1-4)GlcNAc(b1-3)Gal(b1-4)GlcNAc(b1-3)Gal(b1-4)GlcNAc(b1-3)Gal(b1-4)GlcNAc(b1-2)Man(a1-3)[Gal(b1-4)GlcNAc(b1-3)Gal(b1-4)GlcNAc(b1-3)Gal(b1-4)GlcNAc(b1-3)Gal(b1-4)GlcNAc(b1-3)Gal(b1-4)GlcNAc(b1-2)Man(a1-6)]Man(b1-4)GlcNAc(b1-4)GlcNAc
# Method in brief: as §1
# [11] = biological target: Gal(b1-4)GlcNAc(b1-3)Gal(b1-4)GlcNAc(b1-3)Gal(b1-4)GlcNAc(b1-3)Gal(b1-4)GlcNAc(b1-3)Gal(b1-4)GlcNAc(b1-2)Man(a1-3)[Gal(b1-4)GlcNAc(b1-3)Gal(b1-4)GlcNAc(b1-3)Gal(b1-4)GlcNAc(b1-3)Gal(b1-4)GlcNAc(b1-3)Gal(b1-4)GlcNAc(b1-2)Man(a1-6)]Man(b1-4)GlcNAc(b1-4)[Fuc(a1-6)]GlcNAc
# Method in brief: as §1
# [12] = biological target: Gal(b1-4)GlcNAc(b1-3)Gal(b1-4)GlcNAc(b1-3)Gal(b1-4)GlcNAc(b1-3)Gal(b1-4)GlcNAc(b1-3)Gal(b1-4)GlcNAc(b1-2)[Gal(b1-4)GlcNAc(b1-3)Gal(b1-4)GlcNAc(b1-3)Gal(b1-4)GlcNAc(b1-3)Gal(b1-4)GlcNAc(b1-3)Gal(b1-4)GlcNAc(b1-6)]Man(a1-6)[Gal(b1-4)GlcNAc(b1-3)Gal(b1-4)GlcNAc(b1-3)Gal(b1-4)GlcNAc(b1-3)Gal(b1-4)GlcNAc(b1-3)Gal(b1-4)GlcNAc(b1-2)Man(a1-3)]Man(b1-4)GlcNAc(b1-4)[Fuc(a1-6)]GlcNAc
# Method in brief: as §1
# [13] = biological target: Gal(b1-4)GlcNAc(b1-3)Gal(b1-4)GlcNAc(b1-3)Gal(b1-4)GlcNAc(b1-3)Gal(b1-4)GlcNAc(b1-3)Gal(b1-4)GlcNAc(b1-3)Gal(b1-4)GlcNAc(b1-2)Man(a1-3)[Gal(b1-4)GlcNAc(b1-3)Gal(b1-4)GlcNAc(b1-3)Gal(b1-4)GlcNAc(b1-3)Gal(b1-4)GlcNAc(b1-3)Gal(b1-4)GlcNAc(b1-3)Gal(b1-4)GlcNAc(b1-2)Man(a1-6)]Man(b1-4)GlcNAc(b1-4)GlcNAc
# Method in brief: as §1
# [14] = biological target: Gal(b1-4)GlcNAc(b1-3)Gal(b1-4)GlcNAc(b1-3)GalNAc
# Method in brief: as §1
# [15] = biological target: Gal(b1-4)GlcNAc(b1-3)Gal(b1-4)GlcNAc(b1-3)[Gal(b1-4)GlcNAc(b1-3)Gal(b1-4)GlcNAc(b1-6)]GalNAc
# Method in brief: as §1
# [16] = biological target: Gal(b1-4)GlcNAc(b1-3)Gal(b1-4)GlcNAc(b1-6)[Gal(b1-3)]GalNAc
# Method in brief: as §1
# [17] = biological target: Gal(b1-4)GlcNAc(b1-3)Gal(b1-4)[Fuc(a1-3)]GlcNAc(b1-3)Gal(b1-4)[Fuc(a1-3)]GlcNAc
# Method in brief: as §1
# [18] = biological target: Gal(b1-4)GlcNAc(b1-3)GalNAc
# Method in brief: as §1
# [19] = biological target: Gal(b1-4)GlcNAc(b1-3)[Fuc(a1-3)GlcNAc(b1-6)]Gal(b1-4)Glc
# Method in brief: as §1
# [20] = biological target: Gal(b1-4)GlcNAc(b1-3)[Gal(b1-4)GlcNAc(b1-6)]Gal(b1-4)GlcNAc
# Method in brief: as §1
# [21] = biological target: Gal(b1-4)GlcNAc(b1-3)[GlcNAc(b1-6)]Gal(b1-4)GlcNAc
# Method in brief: as §1
# [22] = biological target: Gal(b1-4)GlcNAc(b1-6)Gal(b1-4)GlcNAc
# Method in brief: as §1
# [23] = biological target: Gal(b1-4)GlcNAc(b1-6)GalNAc
# Method in brief: as §1
# [24] = biological target: Gal(b1-4)GlcNAc(b1-6)[Gal(b1-3)]GalNAc
# Method in brief: as §1
# [25] = biological target: Gal(b1-4)GlcNAc(b1-6)[Gal(b1-4)GlcNAc(b1-3)]GalNAc
# Method in brief: as §1
# Gal(b1-4)GlcNAc6P = biological target: Gal(b1-4)GlcNAc6P
# Method in brief: as §1
# Gal(b1-6)Gal = biological target: Gal(b1-6)Gal
# Method in brief: as §1
# Gal3S(b1-3)GalNAc = biological target: Gal3S(b1-3)GalNAc
# Method in brief: as §1
# Gal3S(b1-3)GlcNAc = biological target: Gal3S(b1-3)GlcNAc
# Method in brief: as §1
# [26] = biological target: Gal3S(b1-3)[Fuc(a1-4)]GlcNAc
# Method in brief: as §1
binder,measurement,setting,value
B1,glycan array binding signal (z-score),[1],2.6
same,glycan array binding signal (z-score),[2],0.073
same,glycan array binding signal (z-score),[3],-0.369
same,glycan array binding signal (z-score),[4],1.19
same,glycan array binding signal (z-score),[5],-1.03
same,glycan array binding signal (z-score),[6],0.466
same,glycan array binding signal (z-score),[7],0.924
same,glycan array binding signal (z-score),[8],2.6
same,glycan array binding signal (z-score),[9],0.072
same,glycan array binding signal (z-score),[10],0.742
same,glycan array binding signal (z-score),[11],2.8
same,glycan array binding signal (z-score),[12],0.531
same,glycan array binding signal (z-score),[13],-1.29
same,glycan array binding signal (z-score),[14],-0.339
same,glycan array binding signal (z-score),[15],1.31
same,glycan array binding signal (z-score),[16],-0.002
same,glycan array binding signal (z-score),[17],0.113
same,glycan array binding signal (z-score),[18],0.322
same,glycan array binding signal (z-score),[19],-0.382
same,glycan array binding signal (z-score),[20],-0.368
same,glycan array binding signal (z-score),[21],0.553
same,glycan array binding signal (z-score),[22],-0.486
same,glycan array binding signal (z-score),[23],-0.291
same,glycan array binding signal (z-score),[24],-1.17
same,glycan array binding signal (z-score),[25],-0.489
same,glycan array binding signal (z-score),Gal(b1-4)GlcNAc6P,-0.075
same,glycan array binding signal (z-score),Gal(b1-6)Gal,2.58
same,glycan array binding signal (z-score),Gal3S(b1-3)GalNAc,0.228
same,glycan array binding signal (z-score),Gal3S(b1-3)GlcNAc,-0.868
same,glycan array binding signal (z-score),[26],0.848

# — the supplement of paper PMC8728848
